From US5602230A (Centocor, Inc., priority 1995, dated 1997)
Strings that start with PEPTIDE1 are HELM notation: dots part the residues, brackets hold end groups and non-standard residues. Where no end group is shown, it is not given here.

assay: general procedure: Boc solid-phase peptide synthesis; 4-methyl benzhydrylamine resin; conditions: whole synthesis, scale 0.5 mmol

In order of rising crude mass:
1. PEPTIDE1{Y.T.D.L.V.A.I.[am]}$$$$V2.0  317 mg
2. Nif-Thr-Asp-Leu-Val-Ala-Ile-Gln-NH2  381 mg
3. LVAIQNKNE-NH2  450 mg
4. TDLVAIQ-NH2  615 mg
5. PEPTIDE1{R.Y.T.D.L.V.A.I.[am]}$$$$V2.0  651 mg
6. DLVAIQNKNE-NH2  789 mg
7. TDLVAIQNKNE-NH2  1171 mg
